Test results published in PubChem BioAssay AID624291 (National Center for Advancing Translational Sciences (NCATS), 2012).
Among all 350,000 compounds or so, about 220 (0.063%) were called active. This list was built around the results that the source calls inconclusive (neither active nor inactive); the mix of calls is not that of the screen. The call rests on the fitted dose curve; in most records, active means well fitted activation curve with a large enough effect; inconclusive means small, poorly fitted or top-dose-only effect; inactive means no such curve, though single readings can be large or run the other way. Where the call is inconclusive, the potency comes from a doubtful curve fit.
Potency means the concentration at half of the fitted maximal effect.

Assay: qHTS for Activators of Integrin-Mediated Alleviation for Muscular Dystrophy; further: nearly all actives have a fitted effect of over 60% in size;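 on activation: 100% = response of the positive control SU9516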
Conditions: alpha7betagal myoblasts, beta-gal FDG fluorescence, 48 h; activation: at 38.3 µM (top of the series)
In short: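 alpha7betagal+/- myoblasts (passage 13, 250/well) treated 48 h at 37C with compounds at 1:260 dilution of DMSO stock. Lysed, then beta-galactosidase activity read as FDG fluorescence (ex 480/em 540) after 30 min, with pre-read for autofluorescence.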
With `CCOC(=O)/C=C/C(=O)OCC(=O)Nc1ccc(Cl)cc1Cl` the activation was inconclusive: -16.9% [activator]. In the case of `Cc1ccc(S(=O)(=O)N2CCN(C(=O)COC(=O)c3ccccc3OC(F)F)CC2)c(C)c1`, the Potency is reported as inconclusive: 0.891 µM [activator, partial curve, poor fit]. With `CC(C)(C)NC(=O)C(c1ccncc1)N(C(=O)CNC(=O)c1ccco1)c1ccc(F)cc1` (stereo not drawn) the Potency was inconclusive: 20 µM [activator, partial curve, poor fit]. In the case of `Cc1ccc(/C=C/C(=O)Nc2cccc(S(=O)(=O)N3CCOCC3)c2)o1`, the Potency is reported as “inactive”. In the case of `COc1ccc(/C=C/CN2CCCC(CO)(Cc3cccc(Cl)c3)C2)cc1` (stereo not drawn), the Potency is reported as “inactive”. With `CCOC(=O)c1cc2c(ccn2C)n1CC(=O)N(Cc1ccccc1)c1ccccc1` the Potency was “inactive”. For `O=[N+]([O-])c1ccc(CSc2ccc(S(=O)(=O)N3CCCC3)cn2)cc1`, the Potency was “inactive”. In the case of `Cc1ccccc1-c1cc(=O)c2c(O)cccc2o1`, the Potency is reported as “inactive”. In the case of `O=C(NNc1ccc([N+](=O)[O-])cc1)Nc1ccccc1`, the Potency is reported as inconclusive: 5.01 µM [activator, single point]. For `Cc1ccc(-c2noc(C3CCCN(C(=O)c4ccccc4Br)C3)n2)cc1` (stereo not drawn), the Potency was inconclusive: 5.01 µM [activator, single point]. In the case of `COc1cccc(-c2cc(C(F)(F)F)nc(-n3ccc([N+](=O)[O-])n3)n2)c1`, the Potency is reported as inconclusive: 22.4 µM [activator, single point]. For `CC1C2NC(=O)N(Cc3ccccc3)C1(C)Oc1ccccc12` (stereo not drawn), the Potency was inconclusive: 5.01 µM [activator, partial curve, poor fit]. With `CCN(c1ccc(C(=O)CSc2nnc(C3CC3)n2C2CC2)cc1)S(C)(=O)=O` the Potency was inconclusive: 3.98 µM [activator, single point]. In the case of `CN(CCC#N)C(=S)NC(=O)c1ccc(S(=O)(=O)N2CCOCC2)cc1`, the Potency is reported as “inactive”. In the case of `O=C(Cc1cccs1)Nc1nc(-c2ccc(F)c(F)c2)cs1`, the Potency is reported as inconclusive: 2.24 µM [activator, partial curve, poor fit]. For `CN(C)S(=O)(=O)n1cc(/C=C(\NC(=O)c2ccccc2)C(=O)N2CCCC2)c2ccccc21`, the Potency was inconclusive: 2.24 µM [activator, full curve, poor fit]. In the case of `CC(C)(C)C(=O)Cn1ncc(Cl)c(Cl)c1=O`, the Potency is reported as “inactive”. With `CC(=O)c1c(O)c2ccccc2n(C2CCCCC2)c1=O` the Potency was inconclusive: 2.82 µM [activator, single point]. With `O=C1OC(N2CCN(C(=O)C3CCCO3)CC2)c2ccccc21` (stereo not drawn) the Potency was inconclusive: 3.55 µM [activator, single point]. For `O=C(CN1C(=O)CCS(=O)(=O)c2ccccc21)Nc1ccc(Cl)cc1`, the Potency was inconclusive: 3.98 µM [activator, partial curve, poor fit]. For `COc1ccc(-c2cc(C(=O)N3CCN(C(=O)c4ccco4)CC3)[nH]n2)cc1`, the Potency was inconclusive: 5.01 µM [activator, single point]. With `COc1ccc(NC(=O)CSCC(=O)Nc2ccccc2N2CCCC2)cc1` the Potency was inconclusive: 3.55 µM [activator, single point]. For `CNS(=O)(=O)c1cccc(C(=O)OCC(=O)NCCCc2ccccc2)c1`, the Potency was inconclusive: 1 µM [activator, partial curve, poor fit]. For `CCN(CC)C(=O)/C=C/c1ccccc1`, the Potency was “inactive”. In the case of `Oc1ccc(C(=S)N2CCN(c3cccc(Cl)c3)CC2)cc1`, the Potency is reported as inconclusive: 11.2 µM [activator, single point]. In the case of `CC(=O)Nc1ccc(S(=O)(=O)NC2CC3CCC2C3)cc1` (stereo not drawn), the Potency is reported as inconclusive: 10 µM [activator, partial curve, poor fit]. In the case of `Cc1ccc(-n2nc3c(=O)n(CCCC(=O)NCCN4CCN(C)CC4)nc(C)c3c2C)cc1`, the Potency is reported as inconclusive: 28.2 µM [activator, single point]. In the case of `O=c1c2c([nH]c3ccccc13)CCCCC2`, the Potency is reported as “inactive”. For `CC(C)c1ccc(C=NNc2ccc([N+](=O)[O-])cn2)cc1`, the Potency was inconclusive: 5.01 µM [activator, single point]. With `COc1cccc(OC)c1OCCN(C)C` the Potency was “inactive”. For `N#C/C(=C(/O)COC(=O)c1cccnc1Cl)c1nc2ccccc2[nH]1`, the Potency was inconclusive: 31.6 µM [activator, partial curve, poor fit]. In the case of `CCN(CC)CCn1c(NS(=O)(=O)c2ccc(C)cc2)nc2ccccc21`, the Potency is reported as inconclusive: 28.2 µM [activator, single point]. In the case of `CCOc1cc(C2Nc3ccccc3NC3=C2C(=O)CC(C)(C)C3)ccc1OC(C)=O` (stereo not drawn), the Potency is reported as inconclusive: 31.6 µM [activator, single point]. With `CC1(C)CC(=O)C(/C=N/c2ccccn2)=C(O)C1` the Potency was inconclusive: 5.62 µM [activator, single point]. For `COc1ccc(S(=O)(=O)N2CCOCC2)cc1C(=O)N(C)CCOc1ccc(Cl)cc1`, the Potency was inconclusive: 2.82 µM [activator, single point]. For `CCN(CC)S(=O)(=O)c1ccc(C)c(NC(=O)COC(=O)[C@@H]2CCCN2C(=O)c2cccs2)c1`, the Potency was inconclusive: 5.01 µM [activator, single point]. With `N#Cc1cc(-c2ccccc2)nnc1Sc1ccc(F)cc1` the Potency was inconclusive: 1.78 µM [activator, single point]. In the case of `CN=C1NN=C(c2cc(C)n(-c3c(C)n(C)n(-c4ccccc4)c3=O)c2C)CS1`, the Potency is reported as “inactive”. In the case of `CN1CCN(c2nc3c(c(=O)n(C)c(=O)n3C)n2Cc2ccccc2)CC1`, the Potency is reported as “inactive”. With `COc1ccc(CCN2CC(C(=O)NCc3ccccc3)CCC2=O)cc1` (stereo not drawn) the Potency was inconclusive: 5.01 µM [activator, single point]. For `Cn1c(SCC(=O)Nc2ccc3cn[nH]c3c2)nnc1-c1cnccn1`, the Potency was inconclusive: 5.62 µM [activator, partial curve, poor fit]. With `COc1ccc(CCNC(=O)CSc2ccc(NC(C)=O)cc2)cc1OC` the Potency was “inactive”. With `Clc1ccc(-c2csc(Nc3ccccc3)[n+]2Cc2ccco2)c(Cl)c1` the Potency was inconclusive: 2.24 µM [activator, partial curve, poor fit].
